“And” between values parts separate entries of the source, which are not always exact repeats. Identical values can stand only once. Some of the results follow. Shown are side measurements of this screen, not its main read-out; they come without a call. Most of these compounds were active or inconclusive in the main read-out, so they are no random draw. Potencies come from curve fits of mixed quality, noted in brackets.
Assay: qHTS Assay for Lipid Storage Modulators in Drosophila S3 Cells;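 for cell number change: cells counted by Cell Tracker Red CMTPX staining in the red channel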
Conditions: BODIPY lipid droplet fluorescence, 18-24 h; for cell number change: measured here: cell count max response, cells fed with added oleic acid
How it was run: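 Drosophila S3 cells got compounds at several concentrations plus oleic acid (400 uM solution). Laser-scanning cytometry with 488 nm excitation read lipid droplets at 500-530 nm and cells at 575-640 nm. Percent activity was relative to 20 uM Triacsin C.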

[1] = measured here: cell number channel AC50, cells fed with added oleic acid
[2] = measured here: lipid fluorescence (Fed channel) AC50, cells fed with added oleic acid

CC(OC(=O)CNC(=O)c1ccco1)C(=O)Nc1ccc(Cl)cn1 (configuration not stated)
cell number change: 45.4% | AC50 [1]: 23.1 µM [rising, single point]

COc1ccc(-c2nc(NC(=O)c3c(C)noc3C)sc2C)cc1
cell number change: -28.3% | AC50 [2]: 6.51 µM [falling, single point]

COc1ccc(C2c3ccc4ccccc4c3Oc3ncn(CCN4CCOCC4)c(=N)c32)cc1 (configuration not stated)
cell number change: -6.59%

O=C(COC(=O)c1cc(Cl)ccc1O)NCC1CCCO1 (configuration not stated)
cell number change: -7.38% | AC50 [2]: 9.2 µM [falling, partial curve, poor fit]

CCOc1nc(Nc2ccc(OC)cc2OC)nc(OCC)n1
cell number change: -9.39% | AC50 [2]: 2.31 µM [rising, partial curve]

COc1ccc(/C(N)=N/OC(=O)CSc2ccc(C)cc2)cc1
cell number change: 74.2% | AC50 [1]: 16.4 µM [rising, single point] | AC50 [2]: 2.31 µM [rising, full curve, poor fit]

COc1ccc(-c2nnc(SCC(=O)/C(C#N)=C(\C)N)o2)cc1
cell number change: 6.08% | AC50 [2]: 0.651 µM [rising, full curve, poor fit]

CN1CCC(=O)N(CCOc2ccccc2)CC1
cell number change: 29.9% | AC50 [1]: 2.06 µM [rising, full curve, poor fit]

Cc1cc(=O)n2nc(N3CCCC(C(=O)NCc4cccc(Cl)c4)C3)sc2n1 (configuration not stated)
cell number change: -5.9% | AC50 [2]: 0.116 µM [rising, full curve, poor fit]

CCn1cc(C2=NOC(C(=O)Nc3c(C)nn(Cc4ccc(F)cc4)c3C)C2)c(C)n1 (configuration not stated)
AC50 [1]: 0.517 µM [rising, partial curve] | AC50 [2]: 0.259 µM [rising, full curve, poor fit]

CCc1ccccc1NC(=O)/C(=C/c1ccco1)c1ccccc1
AC50 [1]: 0.00411 µM [rising, full curve, poor fit]

Cc1csc(CNc2ncnc3ccc(-c4ccoc4)cc23)c1
cell number change: 0.361% and 16.7% | AC50 [1]: 0.00517 µM [rising, full curve, poor fit]

CCCC(O)(c1ccc(Cl)cc1)C(CN1CCOCC1)c1ccccc1 (configuration not stated)
cell number change: -30% | AC50 [1]: 8.2 µM [falling, partial curve, poor fit] | AC50 [2]: 20.6 µM [falling, partial curve]

Cc1ccccc1NC(=O)CN1CCC(NC(=O)Nc2ccccc2)CC1
AC50 [1]: 0.366 µM [rising, full curve]

O=S(=O)(c1ccccc1)N1N=C(c2ccc(O)cc2)CC1c1ccco1 (configuration not stated)
cell number change: -32.1% | AC50 [2]: 10.3 µM [falling, partial curve]

Cc1cccc(NC(=O)C(=O)NCCCc2ccccc2)c1
cell number change: -17.7%

COc1ccc(NC(=O)CSc2nnc(Cc3ccccc3)o2)c(OC)c1
cell number change: 3.56%

Cc1ccccc1OCC(=O)Nc1nc(-c2ccncc2)cs1
cell number change: -27.1% | AC50 [2]: 0.461 µM [rising, full curve, poor fit]

NC(=O)c1ncc(C(F)(F)F)cc1Oc1cccnc1
cell number change: 32.8% | AC50 [1]: 2.06 µM [rising, partial curve]

O=C(NCCO)C(=O)NCC(c1ccc2c(c1)OCO2)N1CCN(c2ccc(F)cc2)CC1 (configuration not stated)
cell number change: 21.1% | AC50 [2]: 3.66 µM [rising, single point]

Cc1cc2nc3c(c(=O)n2[nH]1)CCCC3
cell number change: 47.7% | AC50 [1]: 29.1 µM [rising, single point] | AC50 [2]: 6.51 µM [falling, single point]

O=C(N=Nc1c(O)[nH]c2ccc([N+](=O)[O-])cc12)c1ccccc1Cl
cell number change: -54.7% | AC50 [1]: 29.1 µM [falling, single point] | AC50 [2]: 25.9 µM [falling, single point]

CC(C)(C)c1c(Cl)c(O)c(-c2ccccc2)c(=O)n1-c1ccccc1
cell number change: 9.86%

OCC[C@@H]1C[C@@H](O)[C@H](O)[C@]2(CCc3ccccc3CO2)O1
cell number change: 14.1% | AC50 [2]: 29.1 µM [rising, single point]

COCC(C)NC(=O)CSc1nc2ccccc2c(=O)n1CCc1ccc(S(N)(=O)=O)cc1 (configuration not stated)
cell number change: -52.9% | AC50 [1]: 29.1 µM [falling, single point] | AC50 [2]: 0.517 µM [falling, full curve]

O=[N+]([O-])c1ccc(Cl)cc1N1CCOCC1
cell number change: 14% | AC50 [2]: 6.51 µM [falling, single point]

Cc1ccc(NC(=O)CCNC(=O)c2ccc(Br)cc2)cc1S(=O)(=O)N1CCOCC1
cell number change: -99.5% | AC50 [1]: 23.1 µM [falling, single point]

CCC(=O)Nc1ccc(S(=O)(=O)N2CCc3ccccc32)cc1
cell number change: -35.4% | AC50 [1]: 29.1 µM [falling, single point]

OCCN(CCO)c1ccc(C(c2ccc(Cl)cc2)c2ccc(N(CCO)CCO)cc2Cl)c(Cl)c1
cell number change: -61.3% | AC50 [1]: 20.6 µM [falling, single point]

O=C(N/N=C/c1cc(Br)cc(Br)c1O)c1ccncc1
cell number change: 31% | AC50 [1]: 29.1 µM [rising, single point]

O=C(Cn1c(=O)cnc2ccccc21)Nc1cccc(S(=O)(=O)N2CCCCC2)c1
cell number change: 1.93% | AC50 [2]: 4.61 µM [falling, single point]

COc1cccc(-c2cc(C(=O)Nc3ccc4c(c3)OCO4)no2)c1
cell number change: -1.28%

COc1ccc(OCC(=O)NCc2ccc(Cl)cc2)cc1
cell number change: 36.5% | AC50 [1]: 29.1 µM [rising, single point] | AC50 [2]: 29.1 µM [rising, single point]

COc1ccc(CC(=O)O/N=C(\N)Cc2cccc3ccccc23)cc1
cell number change: 10.5% | AC50 [2]: 1.84 µM [rising, partial curve]

CC(C)CC(C(=O)Nc1oc(-c2ccccc2)c(-c2ccccc2)c1C#N)N1C(=O)c2ccccc2C1=O (configuration not stated)
cell number change: -32.7% | AC50 [1]: 23.1 µM [falling, single point]

CN(C(=O)c1ccco1)c1nnc(-c2ccc(F)cc2)s1
cell number change: 0.901% | AC50 [2]: 6.51 µM [falling, single point]

COc1ccccc1/C=C/C(=O)OCCN1C(=O)c2ccccc2C1=O
cell number change: -0.826% | AC50 [2]: 13 µM [falling, single point]

COc1ccc(N=C2SCC(c3ccc(C)cc3)=NN2CCO)cc1
cell number change: 42.3% | AC50 [1]: 18.4 µM [rising, single point] | AC50 [2]: 29.1 µM [rising, single point]

c1ccc(-c2ccc(-c3cn4c(n3)CCC4)cc2)cc1
AC50 [1]: 3.66 µM [rising, partial curve]

CCS(=O)(=O)N1CCC(C(=O)NCc2ccco2)CC1
cell number change: -4.9%

O=c1c2ccccc2nc2n1C(CBr)CS2 (configuration not stated)
cell number change: -21.9% | AC50 [2]: 20 µM [falling, partial curve]

CCOc1ccc(C(=O)COC(=O)c2nc3nccc(C)n3n2)cc1
cell number change: -21.8% | AC50 [2]: 16.4 µM [rising, single point]

CCSC1=C(C#N)C(CC(C)C)C2=C(CCCC2=O)N1 (configuration not stated)
cell number change: 12.5% | AC50 [1]: 6.51 µM [rising, single point]

COc1ccc(NC(=O)c2c(C)cc(=O)oc2C)c(OC)c1
cell number change: 7.08% | AC50 [2]: 0.092 µM [falling, full curve, poor fit]

Fc1ccccc1CNC(=S)Nc1cccc(C(F)(F)F)c1
cell number change: -40.4% | AC50 [1]: 16.4 µM [falling, single point]

Cc1ccccc1C(=O)Nc1cccc(C(=O)N/N=C/c2ccc3c(c2)OCO3)c1
cell number change: 25.4% | AC50 [1]: 0.0517 µM [rising, full curve, poor fit]

COc1ccc(N2C(=O)CCC(C(=O)N3CCOCC3)C2c2ccc(F)cc2)cc1 (configuration not stated)
cell number change: -22.7% | AC50 [1]: 0.651 µM [falling, full curve] | AC50 [2]: 0.58 µM [falling, single point]

O=C(COC(=O)/C=C/c1cccc(Br)c1)NCCc1ccccc1
cell number change: 23.8%

O=[N+]([O-])/C=C/c1ccc2c(ccn2Cc2ccccc2)c1
cell number change: -56.4% | AC50 [1]: 11.6 µM [falling, partial curve] | AC50 [2]: 7.31 µM [falling, partial curve]

CCc1ccc(C2=NN(c3ccc(S(N)(=O)=O)cc3)C(c3ccc(F)cc3)C2)cc1 (configuration not stated)
cell number change: -24.7% | AC50 [2]: 3.66 µM [rising, single point]

O=C(c1cccs1)N1CCN(c2ccc(Cl)cc2)CC1
cell number change: -6.08% | AC50 [2]: 18.4 µM [rising, single point]

O=C(Nc1ccc(N2CCCC2)c(Cl)c1)c1ccc([N+](=O)[O-])cc1
cell number change: 14.8% | AC50 [2]: 6.51 µM [rising, single point]

COc1ccccc1-n1c(SCC(=O)O)nc2c(sc(=S)n2-c2ccc(C)c(C)c2)c1=O
AC50 [1]: 0.58 µM [rising, single point] | AC50 [2]: 1.16 µM [rising, full curve]

C=CCC(c1ccccc1F)N(CCN1CCOCC1)C(=O)Nc1cccc(Cl)c1 (configuration not stated)
AC50 [1]: 6.51 µM [rising, single point] | AC50 [2]: 6.51 µM [rising, single point]

CCCN1CCCc2cc(CN)ccc21
cell number change: -19.5% | AC50 [1]: 0.82 µM [falling, full curve, poor fit] | AC50 [2]: 0.461 µM [rising, full curve, poor fit]

CCN(CC)S(=O)(=O)c1ccc(=O)n(CC(=O)N2CCCc3cc(C)ccc32)c1
cell number change: -4.9% | AC50 [2]: 0.00651 µM [rising, full curve, poor fit]

Cc1nn(C(C)C(=O)NCc2cccs2)c(=O)c2nn(-c3ccccc3)c(C)c12 (configuration not stated)
cell number change: 0.295% | AC50 [2]: 0.58 µM [rising, single point]

COc1ccc(NC(=O)N(Cc2cccs2)Cc2cc3cc4c(cc3[nH]c2=O)OCO4)cc1
cell number change: 22.3% | AC50 [2]: 0.0231 µM [rising, full curve, poor fit]

COc1cc(CNCCc2ccccc2)cc(Br)c1OCC(=O)Nc1ccccc1C
cell number change: -53.1%

— PubChem BioAssay AID2685 (National Center for Advancing Translational Sciences (NCATS), 2010)
